Assay results reported in patent publication US20090012104A1, “Inhibitors of 5'-Methylthioadenosine Phosphorylase and 5'-Methylthioadenosine/S-Adenosylhomocysteine Nucleosidase” (priority 2004, published 2009).
Like-named read-outs stand apart in the source and are kept apart here. Some results were stated once for a whole list of compounds, not compound by compound. For at least one compound, name, drawing or mass did not settle the structure.

By UniProt entry, the sequences of proteins in these tests, tags left out. Where a name states a change or a piece, a line headed by the entry shows the natural chain unless it says otherwise.
UniProt P0AF12: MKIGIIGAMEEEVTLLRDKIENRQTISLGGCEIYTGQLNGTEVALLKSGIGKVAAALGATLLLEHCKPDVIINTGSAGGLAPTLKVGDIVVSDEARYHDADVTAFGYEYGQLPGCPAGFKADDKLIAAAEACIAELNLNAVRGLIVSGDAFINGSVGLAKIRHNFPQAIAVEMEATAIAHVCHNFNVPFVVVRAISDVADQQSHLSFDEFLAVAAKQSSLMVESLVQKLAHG

Target: T1, E. coli MTA/AdoHcy nucleosidase (MTAN) (Escherichia coli, UniProt P0AF12)
T1 construct: hexahistidine; made in house; host or cells: bacterial expression vector
Test: MTAN direct UV spectrophotometric enzyme assay (cleavage of MTA, absorbance at 275 nm)
Assay type: biochemical
Conditions: 100-250 μM MTA
Experimental: The gene for E. coli MTA/AdoHcy nucleosidase (MTAN) was amplified and cloned into a bacterial hexahistidine plasmid expression vector. Induced recombinant enzyme was purified by Nickel-chelate chromatography, and dialyzed into 100 mM sodium phosphate buffer, pH 7. Enzyme purity was assessed by SDS-PAGE and concentration assigned using the experimentally determined extinction coefficient (ε280=10480 M^−1cm^−1).
MTAN assays were performed in 1 mL quartz cuvettes using a Perkin Elmer Lambda 35 UV/V is spectrometer outfitted with KinLab and UV WinLab software. This direct UV spectrophotometric assay follows the decrease in absorbance at 275 nm that accompanies the cleavage of MTA to MTR and Ade. (2-(4-Amino-5H-pyrrolo[3,2-d]pyrimidin-7-yl)-5-methyl-sulfanylmethyl-pyrrolidine-3,4-diol) and (2-Amino-4-[5-(4-amino-5H-pyrrolo[3,2-d]pyrimidin-7-yl)-3,4 dihydroxy-pyrrolidin-2-ylmethylsulfanyl]-butyric acid) inhibitor concentrations were assigned using UV absorbance and the extinction coefficient of 9-deazaadenine. Reaction conditions consisted of 100-250 μM MTA, 50 mM sodium phosphate (pH 7), and 0-1 μM inhibitor at 25° C. Reactions were initiated by the addition of […] MTAN enzyme to the 1 mL assay mixture, and the change in UV absorbance followed for 20-25 minutes. Controls consisted of reactions containing no inhibitor or no enzyme. Inhibitor constants for the initial rate reactions (Ki's) were calculated by fitting the results to the equation for competitive inhibition.

[1] = steady state reaction rates measured at 15-20 minutes, competitive inhibition equation, pH 7, 25° C, read-out: Ki* (second inhibitor dissociation constant, slow-onset tight binding)

SMILES	Ki [1] [nM]	Ki (initial rates fitted to competitive inhibition, 50 mM sodium phosphate pH 7, 0-1 μM inhibitor, 25° C, read-out: Ki (inhibitor constant for the initial rate reactions)) [nM]
Nc1ncnc2c(C3NC(CSCCC(N)C(=O)O)C(O)C3O)c[nH]c12 (stereo not drawn) [2-Amino-4-[5-(4-amino-5H-pyrrolo[3,2-d]pyrimidin-7-yl)-3,4-dihydroxy-pyrrolidin-2-ylmethylsulfanyl]-butyric acid]	< 10	
CSCC1NC(c2c[nH]c3c(N)ncnc23)C(O)C1O (stereo not drawn) [2-(4-Amino-5H-pyrrolo[3,2-d]pyrimidin-7-yl)-5-methyl-sulfanylmethyl-pyrrolidine-3,4-diol]	< 10	< 10
